From patent US9758485B2, “Compounds for controlling arthropods” (priority 2013, dated 2017)
Some of these results come from one statement about several compounds together. Some ranges recur; such a range may be that of the whole group of compounds.

Assays:
Assay type in all cases: in vivo
Conditions in all cases: glazed tile, exposure 30 minutes, mortality after 24 hours
[1] = tested on: Aedes aegypti strain MONHEIM; test: Aedes test (AEDSAE surface treatment)
[2] = tested on: Anopheles funestus strain FUMOZ-R; test: Anopheles test (ANPHFU surface treatment)
[3] = tested on: Anopheles gambiae strain RSPH (homozygot kdr); test: Anopheles test (ANPHGB surface treatment)

Measured: efficacy

Cc1cc(C(F)(C(F)(F)F)C(F)(F)F)cc(C)c1-n1cc(-c2ccc(Cl)c(C(=O)NC3(C#N)CC3)c2)cn1 [I-T3-3]
90-100%: [1]; application rate 20 mg/m^2 | [1]; application rate 100 mg/m^2 | [2]; application rate 20 mg/m^2

Cc1cc(C(F)(C(F)(F)F)C(F)(F)F)cc(C)c1-n1cc(-c2cncc(C(=O)NC3(C#N)CC3)c2)cn1 [I-T3-8]
90-100%: [1]; application rate 20 mg/m^2 | [1]; application rate 100 mg/m^2

Cc1cc(C(F)(C(F)(F)F)C(F)(F)F)cc(C)c1-n1cc(-c2cnc(Cl)c(C(=O)NC3CC3)c2)cn1 [I-T3-20]
90-100%: [1]; application rate 20 mg/m^2 | [1]; application rate 100 mg/m^2 | [3]; application rate 100 mg/m^2

Cc1cc(C(F)(C(F)(F)F)C(F)(F)F)cc(C)c1-n1cc(-c2cnc(Cl)c(C(=O)NC3(C#N)CC3)c2)cn1 [I-T3-21]
90-100%: [1]; application rate 20 mg/m^2 | [1]; application rate 100 mg/m^2

CCc1cc(C(F)(C(F)(F)F)C(F)(F)F)ccc1-n1cc(-c2ccc(Cl)c(C(=O)NC3(C#N)CC3)c2)cn1 [I-T3-38]
90-100%: [1]; application rate 20 mg/m^2 | [1]; application rate 100 mg/m^2 | [2]; application rate 20 mg/m^2 | [2]; application rate 100 mg/m^2

O=C(NC1CC1)c1cc(-c2cnn(-c3c(Cl)cc(C(F)(C(F)(F)F)C(F)(F)F)cc3Cl)c2)cnc1Cl [I-T3-42]
90-100%: [1]; application rate 20 mg/m^2 | [1]; application rate 100 mg/m^2 | [2]; application rate 20 mg/m^2

N#CC1(NC(=O)c2cc(-c3cnn(-c4c(Cl)cc(C(F)(C(F)(F)F)C(F)(F)F)cc4Cl)c3)cnc2Cl)CC1 [I-T3-43]
90-100%: [1]; application rate 20 mg/m^2 | [1]; application rate 100 mg/m^2 | [2]; application rate 20 mg/m^2 | [2]; application rate 100 mg/m^2 | [3]; application rate 20 mg/m^2 | [3]; application rate 100 mg/m^2

CCc1cc(C(F)(C(F)(F)F)C(F)(F)F)cc(C)c1-n1cc(-c2ccc(Cl)c(C(=O)NC3(C#N)CC3)c2)cn1 [I-T3-46]
90-100%: [1]; application rate 20 mg/m^2 | [1]; application rate 100 mg/m^2 | [2]; application rate 20 mg/m^2 | [2]; application rate 100 mg/m^2

O=C(NC1CC1)c1cc(-c2cnn(-c3ccc(C(F)(C(F)(F)F)C(F)(F)F)cc3C(F)(F)F)c2)ccc1Cl [I-T3-52]
90-100%: [1]; application rate 20 mg/m^2 | [1]; application rate 100 mg/m^2 | [2]; application rate 20 mg/m^2 | [3]; application rate 20 mg/m^2 | [3]; application rate 100 mg/m^2

N#CC1(NC(=O)c2cc(-c3cnn(-c4ccc(C(F)(C(F)(F)F)C(F)(F)F)cc4C(F)(F)F)c3)ccc2Cl)CC1 [I-T3-53]
90-100%: [1]; application rate 20 mg/m^2 | [1]; application rate 100 mg/m^2 | [2]; application rate 20 mg/m^2 | [3]; application rate 20 mg/m^2 | [3]; application rate 100 mg/m^2

Cc1cc(C(F)(C(F)(F)F)C(F)(F)F)cc(C(F)(F)F)c1-n1cc(-c2ccc(Cl)c(C(=O)NC3CC3)c2)cn1 [I-T3-54]
90-100%: [1]; application rate 20 mg/m^2 | [1]; application rate 100 mg/m^2 | [2]; application rate 20 mg/m^2 | [2]; application rate 100 mg/m^2 | [3]; application rate 20 mg/m^2 | [3]; application rate 100 mg/m^2

Cc1cc(C(F)(C(F)(F)F)C(F)(F)F)cc(C(F)(F)F)c1-n1cc(-c2ccc(Cl)c(C(=O)NC3(C#N)CC3)c2)cn1 [I-T3-55]
90-100%: [1]; application rate 20 mg/m^2 | [1]; application rate 100 mg/m^2 | [2]; application rate 20 mg/m^2

O=C(NC1CC1)c1cc(-c2cnn(-c3c(Cl)cc(C(F)(C(F)(F)F)C(F)(F)F)cc3C(F)(F)F)c2)ccc1Cl [I-T3-56]
90-100%: [1]; application rate 20 mg/m^2 | [1]; application rate 100 mg/m^2 | [2]; application rate 100 mg/m^2 | [3]; application rate 100 mg/m^2

N#CC1(NC(=O)c2cc(-c3cnn(-c4c(Cl)cc(C(F)(C(F)(F)F)C(F)(F)F)cc4C(F)(F)F)c3)ccc2Cl)CC1 [I-T3-57]
90-100%: [1]; application rate 20 mg/m^2 | [1]; application rate 100 mg/m^2 | [2]; application rate 20 mg/m^2 | [3]; application rate 20 mg/m^2 | [3]; application rate 100 mg/m^2

O=C(NCC(F)(F)F)c1cc(-c2cnn(-c3c(Cl)cc(C(F)(C(F)(F)F)C(F)(F)F)cc3C(F)(F)F)c2)ccc1Cl [I-T3-58]
90-100%: [1]; application rate 20 mg/m^2 | [1]; application rate 100 mg/m^2 | [2]; application rate 100 mg/m^2 | [3]; application rate 20 mg/m^2

O=C(NC1CC1)c1cc(-c2cnn(-c3c(F)cc(C(F)(C(F)(F)F)C(F)(F)F)cc3F)c2)ccc1Cl [I-T3-61]
90-100%: [1]; application rate 20 mg/m^2 | [1]; application rate 100 mg/m^2 | [2]; application rate 20 mg/m^2 | [3]; application rate 20 mg/m^2 | [3]; application rate 100 mg/m^2

Cc1cc(C(F)(C(F)(F)F)C(F)(F)F)cc(Cl)c1-n1cc(-c2ccc(Cl)c(C(=O)NC3CC3)c2)cn1 [I-T3-63]
90-100%: [1]; application rate 20 mg/m^2 | [1]; application rate 100 mg/m^2 | [2]; application rate 20 mg/m^2 | [2]; application rate 100 mg/m^2

Cc1cc(C(F)(C(F)(F)F)C(F)(F)F)cc(Cl)c1-n1cc(-c2ccc(Cl)c(C(=O)NC3(C#N)CC3)c2)cn1 [I-T3-64]
90-100%: [1]; application rate 20 mg/m^2 | [1]; application rate 100 mg/m^2

Cc1cc(C(F)(C(F)(F)F)C(F)(F)F)cc(Br)c1-n1cc(-c2ccc(Cl)c(C(=O)NC3CC3)c2)cn1 [I-T3-86]
90-100%: [1]; application rate 20 mg/m^2 | [1]; application rate 100 mg/m^2 | [2]; application rate 100 mg/m^2

N#CC1(NC(=O)c2cc(-c3cnn(-c4c(Cl)cc(OC(F)(F)F)cc4Cl)c3)ccc2Cl)CC1 [I-T3-87]
90-100%: [1]; application rate 20 mg/m^2 | [1]; application rate 100 mg/m^2 | [3]; application rate 20 mg/m^2

Cc1ncc(-c2cnn(-c3c(Cl)cc(C(F)(C(F)(F)F)C(F)(F)F)cc3Cl)c2)cc1C(=O)NC1CC1 [I-T3-91]
90-100%: [1]; application rate 20 mg/m^2 | [1]; application rate 100 mg/m^2 | [3]; application rate 20 mg/m^2

Cc1ncc(-c2cnn(-c3c(Cl)cc(C(F)(C(F)(F)F)C(F)(F)F)cc3Cl)c2)cc1C(=O)NC1(C#N)CC1 [I-T3-92]
90-100%: [1]; application rate 20 mg/m^2 | [1]; application rate 100 mg/m^2 | [2]; application rate 20 mg/m^2 | [2]; application rate 100 mg/m^2 | [3]; application rate 20 mg/m^2

N#CC1(NC(=O)c2cc(-c3cnn(-c4c(Cl)cc(C(F)(F)F)cc4Cl)c3)cnc2Cl)CC1 [I-T3-95]
90-100%: [1]; application rate 20 mg/m^2

Cc1cc(C(F)(C(F)(F)F)C(F)(F)F)cc(C)c1-n1cc(-c2cnc(C)c(C(=O)NC3CC3)c2)cn1 [I-T3-96]
90-100%: [1]; application rate 20 mg/m^2 | [1]; application rate 100 mg/m^2

O=C(NC1CC1)c1cc(-c2cnn(-c3c(Cl)cc(C(F)(F)F)cc3Cl)c2)cnc1Cl [I-T3-98]
90-100%: [1]; application rate 20 mg/m^2 | [1]; application rate 100 mg/m^2

CN(C(=O)c1cc(-c2cnn(-c3c(Cl)cc(C(F)(F)F)cc3Cl)c2)cnc1Cl)C1CC1 [I-T3-99]
90-100%: [1]; application rate 20 mg/m^2 | [1]; application rate 100 mg/m^2 | [2]; application rate 20 mg/m^2 | [2]; application rate 100 mg/m^2

CN(C(=O)c1cc(-c2cnn(-c3c(Cl)cc(C(F)(C(F)(F)F)C(F)(F)F)cc3Cl)c2)cnc1Cl)C1CC1 [I-T3-100]
90-100%: [1]; application rate 20 mg/m^2 | [1]; application rate 100 mg/m^2 | [2]; application rate 20 mg/m^2 | [2]; application rate 100 mg/m^2 | [3]; application rate 20 mg/m^2 | [3]; application rate 100 mg/m^2

Cc1cc(C(F)(C(F)(F)F)C(F)(F)F)cc(C)c1-n1cc(-c2cnc(Cl)c(C(=O)N(C)C3CC3)c2)cn1 [I-T3-101]
90-100%: [1]; application rate 20 mg/m^2 | [1]; application rate 100 mg/m^2

CN(C(=O)c1cc(-c2cnn(-c3c(Cl)cc(C(F)(C(F)(F)F)C(F)(F)F)cc3Cl)c2)cnc1Cl)C1(C#N)CC1 [I-T3-102]
90-100%: [1]; application rate 20 mg/m^2 | [1]; application rate 100 mg/m^2 | [2]; application rate 20 mg/m^2 | [2]; application rate 100 mg/m^2 | [3]; application rate 20 mg/m^2 | [3]; application rate 100 mg/m^2

Cc1cc(C(F)(C(F)(F)F)C(F)(F)F)cc(C)c1-n1cc(-c2cnc(Cl)c(C(=O)N(C)C3(C#N)CC3)c2)cn1 [I-T3-103]
90-100%: [1]; application rate 20 mg/m^2 | [1]; application rate 100 mg/m^2

Cc1cc(C(F)(C(F)(F)F)C(F)(F)F)cc(C(F)(F)F)c1-n1cc(-c2cnc(Cl)c(C(=O)NC3CC3)c2)cn1 [I-T3-106]
90-100%: [1]; application rate 20 mg/m^2 | [1]; application rate 100 mg/m^2 | [3]; application rate 20 mg/m^2

Cc1cc(C(F)(C(F)(F)F)C(F)(F)F)cc(C(F)(F)F)c1-n1cc(-c2cnc(Cl)c(C(=O)N(C)C3CC3)c2)cn1 [I-T3-107]
90-100%: [1]; application rate 20 mg/m^2 | [1]; application rate 100 mg/m^2 | [2]; application rate 20 mg/m^2 | [2]; application rate 100 mg/m^2

Cc1cc(C(F)(C(F)(F)F)C(F)(F)F)cc(C(F)(F)F)c1-n1cc(-c2cnc(Cl)c(C(=O)NC3(C#N)CC3)c2)cn1 [I-T3-108]
90-100%: [1]; application rate 20 mg/m^2 | [1]; application rate 100 mg/m^2

CN(C(=O)c1cc(-c2cnn(-c3c(Cl)cc(C(F)(C(F)(F)F)C(F)(F)F)cc3C(F)(F)F)c2)cnc1Cl)C1CC1 [I-T3-113]
90-100%: [1]; application rate 20 mg/m^2 | [1]; application rate 100 mg/m^2 | [2]; application rate 20 mg/m^2 | [2]; application rate 100 mg/m^2

Cc1cc(C(F)(C(F)(F)F)C(F)(F)F)cc(C)c1-n1cc(-c2cnc(C)c(C(=O)N(C)C3(C#N)CC3)c2)cn1 [I-T3-115]
90-100%: [1]; application rate 20 mg/m^2 | [1]; application rate 100 mg/m^2 | [2]; application rate 100 mg/m^2

Cc1cc(C(F)(C(F)(F)F)C(F)(F)F)cc(C(F)(F)F)c1-n1cc(-c2cnc(C)c(C(=O)NC3CC3)c2)cn1 [I-T3-117]
90-100%: [1]; application rate 20 mg/m^2 | [1]; application rate 100 mg/m^2

Cc1cc(C(F)(C(F)(F)F)C(F)(F)F)cc(C(F)(F)F)c1-n1cc(-c2cnc(C)c(C(=O)N(C)C3CC3)c2)cn1 [I-T3-118]
90-100%: [1]; application rate 20 mg/m^2 | [1]; application rate 100 mg/m^2

Cc1cc(C(F)(C(F)(F)F)C(F)(F)F)cc(C)c1-n1cc(-c2cnc(C)c(C(=O)N(C)C3CC3)c2)cn1 [I-T3-120]
90-100%: [1]; application rate 100 mg/m^2

Cc1ncc(-c2cnn(-c3c(Cl)cc(C(F)(C(F)(F)F)C(F)(F)F)cc3C(F)(F)F)c2)cc1C(=O)N(C)C1CC1 [I-T3-130]
90-100%: [1]; application rate 20 mg/m^2 | [1]; application rate 100 mg/m^2 | [3]; application rate 20 mg/m^2 | [3]; application rate 100 mg/m^2

O=C(NC1CC1)c1cc(-c2cnn(-c3c(Cl)cc(C(F)(C(F)(F)F)C(F)(F)F)cc3Cl)c2)cnc1NC1CC1 [I-T3-137]
90-100%: [3]; application rate 20 mg/m^2

N#CC1(NC(=O)c2cc(-c3cnn(-c4c(Cl)cc(C(F)(C(F)(F)F)C(F)(F)F)cc4OC(F)(F)F)c3)ccc2Cl)CC1 [I-T3-163]
90-100%: [1]; application rate 20 mg/m^2 | [1]; application rate 100 mg/m^2

N#CC1(NC(=O)c2cc(-c3cc(-c4c(Cl)cc(C(F)(C(F)(F)F)C(F)(F)F)cc4Cl)on3)ccc2Cl)CC1 [I-T23-2]
90-100%: [1]; application rate 20 mg/m^2 | [1]; application rate 100 mg/m^2 | [2]; application rate 20 mg/m^2
